Primary screen of a compound library

Source: ChEMBL document CHEMBL3988442, “University of Dundee, Small-Polar-MMV Screening Library” (2021).

A: 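Whole-parasite assay of Trypanosoma brucei over 72 hours; the read-out is not stated. Compounds at 30 µM. Higher reads as stronger inhibition (inferred: compounds with an IC50 in retests scored well above the rest). Values scatter widely below zero; nearly all retest evidence comes from the higher of the two concentrations used. About 64,000 compounds were tested under these conditions; 1.5% (about 940) showed 50% or more at least once.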
B: 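Cell assay of Leishmania donovani living inside macrophages; the read-out is not stated. Concentration: 30 µM. The record gives no direction; compounds that gave an IC50 in retests scored well above the rest, so higher reads as stronger inhibition. About 69,000 compounds were tested under these conditions; 1.5% (about 1,000) showed 50% or more at least once.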

Each number is a percent effect as filed.
How 0% and 100% were set is not recorded. Most values in the screen are low, and negative values occur.
This is an unselected part of the compounds tested.
Two or more numbers in one place are separate tests of the same structure; such repeats can differ widely.
A dash means the value is not listed here; it may have been measured.

| SMILES | A | B |
|---|---|---|
| `O[C@@H]1C[C@@H](c2nc(Cc3ccccc3)no2)N(CC2CC2)C1` | -7.187 | -11.85 |
| `FC(F)CN1CCC(NCCc2ccc(-n3cccn3)cc2)CC1` | 7.566 | 23.28 |
| `COCCN(Cc1ccccc1C)c1nc(C)nc2oc(C)nc12` | 14.77 | 2.007 |
| `CCN(C)C(=O)CCN(C)Cc1cnc(C)s1` | 3.051 | -0.3818 |
| `Cc1nc(C(C)N2Cc3ncccc3C2=O)cs1` (stereo not shown) | 14.47 | -9.198 |
| `O=C(CCCN1CCCCC1)N1CCN(C(=O)c2ccc[nH]2)CC1` | -51.85 | 26.89 |
| `COCCN(CCOC)Cc1c(C)nc2ccccc2c1O` | -11.56 | 16.37 |
| `O=C(NCCOc1ccccc1)c1ccc2c(c1)C(=O)NC2=O` | -31.17 | -18.88 |
| `CSCCCN1CC[C@@H](NC(=O)c2cnccn2)[C@H](O)C1` | 1.5 | 30.01 |
| `CN1CCC(Cc2noc(CCc3nc4ccccc4nc3O)n2)CC1` | 4.767 | 17.08 |
| `Cc1cccc2nc(C(=O)N3CCC4(CCC(=O)N(C)C4)CC3)c(F)n12` | -19.88 | 9.566 |
| `Cc1cnc(N2CCc3c(c(COc4cncnc4)nn3C)C2)nc1` | -40.48 | 14.72 |
| `O=C(CCNC(=O)c1ccoc1)Nc1c(F)cccc1F` | 14.55 | 13.24 |
| `C[C@@H]1CN(C2CCOCC2)C[C@]12CCN(c1cccnc1)C2=O.O=C(O)C(F)(F)F.O=C(O)C(F)(F)F` | -11.24 | 1.503 |
| `O=C(O)C(F)(F)F.O=C(O)C(F)(F)F.[H][C@]12C[C@@H](CN3CCCC3)N(C(C)C)[C@@]1([H])CCN(C(=O)c1ccoc1)C2` | -78.17 | -4.252 |
| `[H][C@@]12CS(=O)(=O)C[C@]1([H])N(C(=O)c1cccc3cccnc13)CCN2CCC` | -26.63 | -21.66 |
| `CC/C=C(/C)C(=O)NCc1ccnc(OC)c1` | -18.46 | 13.55 |
| `CC(O)(CN1CCC2(CC1)OCCO2)c1cccc(C(F)(F)F)c1` (stereo not shown) | 7.2 | 27.78 |
| `Cc1cc(F)ccc1-n1cc(O)c(C(=O)NCC2(O)CCC2)n1` | -18.18 | -15.82 |
| `CC(C)c1nnc2ccc(N3CCC(C(=O)Nc4nccs4)CC3)nn12` | 61.33 | 45.64 |
| `O=C(c1cnn2c1OCCC2)N1CCN(C(=O)C2CCCO2)CC1` (stereo not shown) | -16.83 | 29.73 |
| `[H][C@@]12CN(S(=O)(=O)c3cccc(C)c3)C[C@]1([H])OCCN2C(C)C` | - | -28.92 |
| `Cc1nc(C)n(CC2CCCN(c3ncnc4ccccc34)C2)n1` (stereo not shown) | 12.87 | 54.57 |
| `CC(=O)N1CCC(CN2CCN(Cc3nccn3C)C(C)C2)CC1` (stereo not shown) | -32.12 | 8.915 |
| `CC(C)CCc1noc(CN2CCCC(CNS(N)(=O)=O)C2)n1` (stereo not shown) | -46.77 | 3.702 |
| `Clc1cccc2c1CCN(Cc1nc(CC3CC3)no1)C2` | 16.95 | 12.17 |
| `CCC1CN(C(=O)c2cc(C(C)=O)c(C)[nH]c2=O)CCN1C(C)C` (stereo not shown) | 14.65 | 21.62 |
| `Cc1c(C)n2c(SCC(=O)N3CCCCCC3)nnc2[nH]c1=O` | -9.151 | 3.375 |
| `O=C(COCC1CC1)Nc1ncccc1O` | -5.287 | 13.78 |
| `O=C(Cc1ccc(F)cc1)NCc1ccc(C(=O)O)o1` | -24.87 | -1.214 |
| `COCCC(=O)NCc1ccc(-c2ccccc2C(=O)O)cn1` | 6.021 | 29.79 |
| `Cn1c(C2CC2)nc2cc(NC(=O)C3CCOC3)ccc21` (stereo not shown) | 9.57 | 16.52 |
| `[H][C@@]12CN(C(=O)c3ccncc3)C[C@]1([H])OCCN2C(C)C` | 35.65 | 5.828 |
| `O=C(Cc1ccsc1)N1CCCCC1c1ccn2ccnc2n1` (stereo not shown) | -11.73 | 4.669 and -19.93 |
| `CCNC(=O)[C@@H]1C[C@@H](n2cc(CC3CCCCC3)nn2)CN1` | -21.53 | 24.13 |
| `O=C(c1ccc(N2CCOCC2)nc1)N1CCCC(n2ccnc2)C1` (stereo not shown) | - | -4.281 |
| `O=C(O)C(F)(F)F.O=C(c1cnccn1)N1CCCC2(CCN(c3ncccn3)C2)C1` (stereo not shown) | -0.826 | 32.2 |
| `COCc1ncc(CN2CCC(Oc3ccc(OC)cc3)CC2)cn1` | 8.161 | -21.86 |
| `Cc1ccccc1-c1noc(CN2CCc3cncnc3C2)n1` | - | 15.29 |
| `COc1ccc(CCC(=O)N2CCCC2Cn2cc(C)cn2)cc1F` (stereo not shown) | 4.443 | 13.35 |
| `CCCc1cc(C(=O)NCCCC(=O)N2Cc3ccccc3C2)[nH]n1` | 9.661 | -2.029 |
| `Cc1cccc(N(CCC(N)=O)C(=O)c2ccnc(C)n2)c1` | -25.34 | 17.08 |
| `O=C(O)C(F)(F)F.[H][C@]12C[C@@H](CN(C)C)N(C(C)=O)[C@@]1([H])CCN(C(=O)c1occc1C)C2` | -4.239 | 4.741 |
| `Cc1nn(C)c2cn(C(C)C(=O)NCc3ccccn3)nc12` (stereo not shown) | -11.99 | 50.14 |
| `N#CCCn1cnc2c(Br)cccc2c1=O` | 5.011 | 12.76 |
| `CC(C)Oc1ncccc1CNC(=O)N1CCC(C(N)=O)C1` (stereo not shown) | -51.28 | -39.08 |
| `O=C(c1cncs1)N1CCCC1c1ccn[nH]1` (stereo not shown) | 20.42 | 28.6 |
| `O=C(NCCCOCC1CC1)Nc1ccc(F)cc1` | -14.14 | -11.26 |
| `CCn1c(C)cc(C(=O)NCc2cccc(NS(C)(=O)=O)c2)c1C` | -14.31 | -35.73 |
| `COc1ccc(CC(=O)N2CCCCC2Cn2cccn2)cc1OC` (stereo not shown) | 16.09 | -1.082 |
| `COc1ccnc(N2CCN(C(=O)c3csc(C(C)C)n3)CC2)n1` | 2.585 | 22.1 |
| `CN(CC(=O)NC(Cc1ccccc1)C1CCCC1)S(C)(=O)=O` (stereo not shown) | 62.9 | -50.79 |
| `CCN1CC2(CC1=O)CN(Cc1cnn(C)c1)CCN(C(=O)N(C)C)C2.O=C(O)C(F)(F)F` (stereo not shown) | -27.29 | 17.61 |
| `O=C(NCCO)C1(Cc2cc(-c3ccc(F)cc3F)no2)CCOCC1` | 16.46 | 22.14 |
| `CCC(CC)NCC(c1ccccn1)N1CCOCC1` (stereo not shown) | - | -7.791 |
| `COc1cncc(N2CCN(Cc3ccncc3Cl)CC2)n1` | -12.45 | -7.972 |
| `CNc1cc2c(nn1)CCN(C(=O)c1coc(Br)c1)C2` | - | -2.691 |
| `Cc1nc(-c2ccccc2)n(CC(=O)NC(C)C)n1` | -12.06 | 11.89 |
| `CCOc1ccc(OCc2nccc(-c3cc(C(=O)O)ccn3)n2)cc1` | -67.72 | -79.58 |
| `CCS(=O)(=O)N1CCC2(CN(Cc3ccc(C)o3)C2)C1` | -17.87 | 25.65 |
| `CC(C)(C)n1ncc2c1NC(=O)CSC2c1ccc2c(c1)OCO2` (stereo not shown) | -13.1 | 12.09 |
| `Cc1noc(C2CCN(C(=O)CCc3ccccn3)CC2)n1` | 2.754 | 5.173 |
| `CN(C(=O)Nc1ccccn1)C1CCCN(c2ccccc2)C1=O` (stereo not shown) | -51.79 | -12.75 |
| `c1coc(-c2noc(CN3CCC(c4ccn[nH]4)CC3)n2)c1` | 3.897 | -0.4374 |
| `COc1ccccc1OCCCn1c(C)c(C)oc1=O` | -84.53 | 26.71 |
| `CN(C)C(=O)CN1CCC2(CC1)CN(S(C)(=O)=O)Cc1ccccc1O2` | -7.511 | 27.32 |
| `CCc1cc(C(=O)N2CCCC2c2nc(C)c(CC)c(O)n2)on1` (stereo not shown) | -11.23 | 30.85 |
| `CN1CCN(C(=O)c2ncn3c2CN(C)S(=O)(=O)c2ccccc2-3)CC1.O=C(O)C(F)(F)F` | -10.23 | 10.58 |
| `O=C(O)C(F)(F)F.[H][C@]12CCC[C@@H](CN(C)CCOC)[C@@]1([H])CN(c1ncccn1)C2` | -1.893 | 18.18 |
| `O=C(O)C(F)(F)F.[H][C@@]12CCN(C(=O)Cc3ccccc3)[C@@]1([H])CC(=O)N2Cc1cccnc1` | -5.465 | 13.48 |
| `Cc1cc(CNC2(CO)CCOCC2)ccc1Br` | -35.46 | 31.38 |
| `O=C1CCC2(CCOC2)CN1CCCOc1cccnc1` (stereo not shown) | -10.65 | -3.628 |
| `Cc1ccc(CNC(=O)NC(C)Cn2cccn2)cn1` (stereo not shown) | - | 26.71 |
| `Cc1cc(C2CCCN(Cc3ncc(C(C)C)o3)C2)n[nH]1` (stereo not shown) | -36.55 | 33.12 |

The last 9 entries again:

- CN(C)C(=O)CN1CCC2(CC1)CN(S(C)(=O)=O)Cc1ccccc1O2 | A: -7.511%; B: 27.32%
- CCc1cc(C(=O)N2CCCC2c2nc(C)c(CC)c(O)n2)on1 (stereo not shown) | A: -11.23%; B: 30.85%
- CN1CCN(C(=O)c2ncn3c2CN(C)S(=O)(=O)c2ccccc2-3)CC1.O=C(O)C(F)(F)F | A: -10.23%; B: 10.58%
- O=C(O)C(F)(F)F.[H][C@]12CCC[C@@H](CN(C)CCOC)[C@@]1([H])CN(c1ncccn1)C2 | A: -1.893%; B: 18.18%
- O=C(O)C(F)(F)F.[H][C@@]12CCN(C(=O)Cc3ccccc3)[C@@]1([H])CC(=O)N2Cc1cccnc1 | A: -5.465%; B: 13.48%
- Cc1cc(CNC2(CO)CCOCC2)ccc1Br | A: -35.46%; B: 31.38%
- O=C1CCC2(CCOC2)CN1CCCOc1cccnc1 (stereo not shown) | A: -10.65%; B: -3.628%
- Cc1ccc(CNC(=O)NC(C)Cn2cccn2)cn1 (stereo not shown) | B: 26.71%
- Cc1cc(C2CCCN(Cc3ncc(C(C)C)o3)C2)n[nH]1 (stereo not shown) | A: -36.55%; B: 33.12%